For data set [1], the system named is Cra, WT, constitutively over-expressed in crude lysate + FruK, endogenous. The data set is described as follows: pull-down. Particulars: cells grown with 20 mM fructose; 5' biotin; protein in a lysate after overexpression; label: biotin.
Data set [2] addresses T1, Cra, WT, constitutively over-expressed in crude lysate (Escherichia coli (gene from strain 3.300)) (UniProt P0ACP1).
T1 sequence (looked up): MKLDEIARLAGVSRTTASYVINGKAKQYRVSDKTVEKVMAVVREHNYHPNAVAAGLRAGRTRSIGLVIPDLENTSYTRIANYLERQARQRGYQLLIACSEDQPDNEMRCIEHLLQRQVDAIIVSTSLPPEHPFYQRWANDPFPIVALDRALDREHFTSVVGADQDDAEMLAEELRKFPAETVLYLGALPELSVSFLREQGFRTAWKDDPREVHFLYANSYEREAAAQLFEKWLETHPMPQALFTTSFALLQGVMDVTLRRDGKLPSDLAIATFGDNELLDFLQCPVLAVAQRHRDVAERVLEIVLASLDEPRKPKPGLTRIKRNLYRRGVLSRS
Kind of data set: pull-down. Particulars: no fructose, no FruK detected; 5' biotin; protein in a lysate after overexpression; residues 1-334; label: biotin.

Data set [3] has as its target T2, Cra (FruR), WT (Escherichia coli (gene from strain 3.300)) (UniProt P0ACP1).
T2 sequence (looked up): T1 sequence (looked up)
The data set is described as follows: AFM. The note with it: Cra alone, often kinks DNA, some DNAs with two dimers; recombinant protein; residues 1-334.

The subject of data set [4] is Pyruvate kinase (PYK) (Escherichia coli). Kind of data set: BLI. The note with it: PYK without Cra; 5' biotin; BLI: 50 mM Hepes, 100 mM KCl, 0.1 mM EDTA, 10 mM MgCl2, 0.3 mM DTT, 0.1 mg/mL BSA, pH 7.0, about room temperature; concentrations as dimer; recombinant protein; label: biotin.

For some of these results: Tags and fusion partners may be left off the protein sequences shown. For some of these results: Construct, isoform or probe ends are uncertain for at least one entry. For some of these results: A negative result means that nothing was seen under these conditions. For some of these results: At least one result comes from cells or an extract, where the contact may be indirect.

For the sequence “AATGCCTGCATATGGCAGCTTGAAGCTGAAACGTTTCATTTTGCAGCGATCGTTAC (double strand) [Ocra]”, the binding result in data set [1] and in data set [2] was “binds” each time.

On to “ATAAGCTTGCTGACGCTGCTGAAATGAAATTGCTGATAACGGATTTTCCCATCAGCAATTAGGAAAAATGGCAAAAAATTGTGCAGCACATCAAACTTTTGCTCATAACTTTACGGCTTTCCTTGCGTGCTGAAACAGAAGTATTATGCTTTCTTGAAACGTTTCAGCGCGATCTTGTCTTTAACCCTAAGCCAGGTTGGCGCTTTTTTTCTCATAGAGGCTGAATCGTTTCAATTCAGCAAGAGAGGAGAACTATGTTCCAGTTATCCGTACAGGACATCCATCCGGGCGAAAAGGCCGGAGACAAAGAAGAGGCGATTCGCGAATTCAT (double strand) [fruBKA promoter 331 bp (fruBdistal + fruBproximal)]”, for which the binding result in data set [3] is recorded as “binds”.

For “ATGCATGTTGTGTGGTTCTTGAAACGTTTCAGCTCACACAGGTCC (double strand) [fruBproximal]”, in data set [4], the binding result is “no binding”.

The values above are taken from paper PMC11157272, “Fructose-1-kinase has pleiotropic roles in Escherichia coli” (The Journal of Biological Chemistry, 2023).
